Data reported in PubChem BioAssay AID504834 (National Center for Advancing Translational Sciences (NCATS), 2011).
Hit rate of the full screen: of about 320,000 compounds, about 22,000 (6.9%) were called active. The shares of active, inactive and inconclusive entries below differ from those in the screen. Calls follow the shape of the dose curve; as a rule, active = well fitted inhibition curve with a large enough effect; inconclusive = small, poorly fitted or top-dose-only effect, or another doubt; inactive = no such curve, though single readings can be large or run the other way. Potencies of inconclusive entries are doubtful fits and often do not repeat.

Assay: Primary qHTS for delayed death inhibitors of the malarial parasite plastid, 96 hour incubation
Settings: P. falciparum luciferase reporter growth; series mostly up to 28.7 µM
Procedure, shortened: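 Erythrocytes infected with luciferase-expressing P. falciparum were dispensed at 2% hematocrit and 0.05% parasitemia (final), then incubated with compounds 96 hours at 37 C in 5% CO2. Luminescence after detection reagent addition reported growth.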
Potency is read from the fitted curve at half-maximal effect.

Structure (SMILES) | Potency
Cc1cc(-c2ccc(C)c(S(=O)(=O)NCCCN(Cc3ccccc3)C(C)C)c2)on1 | inactive
CC(=O)c1cccc(NC(=O)Nc2cc3sccc3n2C)c1 | inconclusive: 3.7 µM [inhibitor, full curve]
CCN(c1ccccc1)S(=O)(=O)c1ccc(Cl)c(NC(=O)COC(=O)c2ccc(O)cc2)c1 | active: 11.7 µM
Cc1ccccc1OCC(=O)Nc1ccc(C)c(S(=O)(=O)N2CCCCCC2)c1 | inconclusive: 11.7 µM [inhibitor, single point]
c1ccc(-c2cc3c(N4CCCCC4)ncnc3s2)cc1 | inactive
CN(C)c1cccc(C(=O)OCCNC(=O)c2cccc(S(=O)(=O)N3CCOCC3)c2)c1 | inconclusive: 7.38 µM [inhibitor, partial curve, poor fit]
Cc1ccnc(NC(=O)CSc2nnc3c(n2)[nH]c2ccccc23)c1 | inactive
O=C(N/N=C1\CCCc2ccccc21)c1cccc(Br)c1 | inactive
Cc1ccc(C(=O)N/C(=C/c2ccco2)C(=O)N2CCCCCC2)cc1 | inconclusive: 11.7 µM [inhibitor, single point]
CCOc1cc(C(=O)NC(C)CC)cc(OCC)c1OCC (stereo unspecified) | inactive
Cc1ccc(C(=O)Nc2ccccc2C(=O)NCc2cccnc2)cc1 | active: 10.4 µM
Cc1ccccc1NC(=O)c1cc2c(=O)n3cccc(C)c3nc2s1 | inactive
CCC(C)(C)n1nnnc1CN(Cc1ccc(Cl)cc1)Cc1ccco1 | inconclusive: 16.5 µM [inhibitor, partial curve, poor fit]
CN1C2CCC1/C(=C/c1ccccn1)C(=O)/C2=C\c1ccccn1 | active: 0.465 µM
COc1ccc(N2CCN(S(=O)(=O)c3c(C)noc3/C=C/N(C)C)CC2)cc1 | inconclusive: 3.7 µM [inhibitor, partial curve]
O=C(CNC(c1ccccc1)c1ccccc1)Nc1cc([N+](=O)[O-])ccc1Cl | active: 13.1 µM
COC(CNC(=O)c1ccc2c(=O)n(Cc3ccc4c(c3)OCO4)c(=S)[nH]c2c1)OC | inconclusive: 13.1 µM [inhibitor, single point]
COc1ccc(/C=C/C(=O)c2ccc(OC)cc2OC)c(OC)c1 | active: 3.7 µM
COc1ccccc1CN(C)C(=O)c1cccc(S(=O)(=O)N2CCCC2)c1 | inconclusive: 18.5 µM [inhibitor, single point]
CCOC(=O)C1Nc2ccc(Br)cc2C2C=CCC12 (stereo unspecified) | active: 13.1 µM
CC(C)C(=O)N1CCN(c2ccccc2NC(=O)c2ccc([N+](=O)[O-])o2)CC1 | inactive
COc1ccc(C(=O)NCc2nnc(SCC(=O)N3CCOCC3)o2)cc1OC | inconclusive: 18.5 µM [inhibitor, single point]
CC1CCCN(CCCNC(=O)c2nn(C)c3c2CS(=O)(=O)c2ccccc2-3)C1 (stereo unspecified) | inconclusive: 5.86 µM [inhibitor, partial curve]

Structure (SMILES) | Potency
CCOc1ccc(NC(=O)CN(C)C(=O)c2c(C)nn(-c3ccc(F)cc3)c2Cl)cc1OCC | inactive
CC[C@@H]1[C@H]2CCCC(=O)N3CC[C@@H](C[C@@H]1OC(=O)Nc1ccccc1)[C@@H]23 | active: 2.33 µM
COc1ccc([C@H]2CC(=O)C=C(c3cc(C)ccc3F)C2)cc1 | inactive
CN(C)c1ccc(-c2sc(Nc3ccccc3)n[n+]2-c2ccc(F)cc2)cc1 | inconclusive: 0.0041 µM [inhibitor, full curve, poor fit]
O=[N+]([O-])c1ccc(O)c(-c2nc(-c3ccccc3)c(-c3cccs3)[nH]2)c1 | inconclusive: 5.22 µM [inhibitor, partial curve]
CCOC(=O)N1CCN(C(=O)COC(=O)c2ccc([N+](=O)[O-])cc2Cl)CC1 | inactive
O=[N+]([O-])c1ccc(-c2c(-c3ccccc3)ncc3ccc(F)cc23)cc1 | inconclusive: 13.1 µM [inhibitor, partial curve, poor fit]
CCC(C(=O)NCCCN1CCOCC1)n1c2ccccc2c2nc(=O)cc(C)n21 (stereo unspecified) | inconclusive: 18.5 µM [inhibitor, single point]
Cc1cccc(C)c1NC(=O)c1cccc2c1-c1ccccc1C2=O | inconclusive: 18.5 µM [inhibitor, single point]
O=C(O)c1ccccc1-c1ccc(/C=C2\SC(=O)N(c3ccccc3)C2=O)o1 | inconclusive: 10.4 µM [inhibitor, partial curve]
Cc1onc(-c2c(F)cccc2Cl)c1C(=O)NC1CCSC1=O (stereo unspecified) | inactive
COc1ccc(OCC(=O)N/N=C(/C)Cc2ccccc2)cc1 | inconclusive: 11.7 µM [inhibitor, single point]
Cc1cccc(C)c1-n1nnnc1S(=O)(=O)Cc1ccccc1Cl | inconclusive: 4.65 µM [inhibitor, partial curve]
COc1cc(C(=O)Oc2cc(N)n(S(=O)(=O)c3ccc(F)cc3)n2)cc(OC)c1OC | active: 4.65 µM
O=C(Oc1cccnc1)c1ccccc1[N+](=O)[O-] | inconclusive: 14.7 µM [inhibitor, single point]
O=C(Cn1ncc2c1-c1ccccc1OC2)Nc1cccc(Cl)c1 | inconclusive: 8.28 µM [inhibitor, partial curve]
C=CCn1c(Cc2cccs2)nnc1SCC(=O)Nc1ccc(OC)cc1 | inconclusive: 18.5 µM [inhibitor, single point]
COc1ccccc1C(=O)Nc1ccc2[nH]ncc2c1 | active: 7.38 µM
COc1ccccc1C(=O)Nc1cc(Cl)ccc1O | inconclusive: 13.1 µM [inhibitor, single point]
COc1cccc(CC2(CO)CCCN(Cc3ccc(C)s3)C2)c1 (stereo unspecified) | inconclusive: 16.5 µM [inhibitor, partial curve, poor fit]
CC(=O)Nc1ccccc1C(=O)C(=O)Nc1cccc(C(=O)NCc2ccc(C)cc2)c1 | inconclusive: 10.4 µM [inhibitor, single point]
O=C(Oc1ccc(Cl)cc1)N1CCCCC1 | inactive
COc1ccc(NC(C)=O)cc1NC(=O)c1cccc(C(F)(F)F)c1 | inactive

2 compounds picked at random from the list so far, as already listed:
Structure (SMILES) | Potency
CC[C@@H]1[C@H]2CCCC(=O)N3CC[C@@H](C[C@@H]1OC(=O)Nc1ccccc1)[C@@H]23 | active: 2.33 µM
O=C(Cn1ncc2c1-c1ccccc1OC2)Nc1cccc(Cl)c1 | inconclusive: 8.28 µM [inhibitor, partial curve]
